According to patent US20250084173A1 (4B TECHNOLOGIES SUZHOU, published 2025):
These are yes or no findings as the source states them, for the method shown.

Legend:
recombinant TrkC protein = assay: ELISA for cross-reactivity on recombinant P75^NTR, TrkA, TrkB and TrkC (FIG. 1a)
recombinant TrkB protein = assay: as above
[1] = molecular target: recombinant P75^NTR protein; assay: ELISA on recombinant protein (FIG. 1a)

binding (recombinant TrkC protein): no binding
binding (recombinant TrkB protein): no binding
binding [1]: no binding
B1: 27A6 (antibody, mouse IgG1, V domains shown)
VH: QVQLQQSGAELMEPGASVKISCKATGYTFSRYWIEWVQQRPGHGLEWIGEILPGSGTTNYNENFRGKATFTADTSSNTVYMQLISLTSEDSAVYYCARSYYGDFDAYWGQGTLVTVSA
VL: QAVVTQESALTTSPGETVTLTCRSSIGAVTTSNHANWVQEKPDHLFTGLIGGTNNRAPGVPARFSGSLIGDKAVLTITGAQTEDEAIYFCALWYSNHWVFGGGTKLTVLG
notes: also called TrkA antibody; TrkA antibody of the present application
